Test results from PMC10882573.
For at least one entry, the source does not settle the construct or the ends of the probe. Where cells or extracts were used, other partners may take part.

Amino acid sequences for entries named in this document (tags omitted).
UniProt P02743, whole entry: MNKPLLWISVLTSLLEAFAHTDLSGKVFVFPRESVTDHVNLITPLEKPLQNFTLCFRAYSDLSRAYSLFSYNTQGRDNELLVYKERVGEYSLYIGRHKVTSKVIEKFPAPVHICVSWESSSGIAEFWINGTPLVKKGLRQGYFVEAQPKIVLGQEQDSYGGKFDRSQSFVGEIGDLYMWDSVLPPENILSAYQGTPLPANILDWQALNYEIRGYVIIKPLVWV

Target: serum amyloid P component (SAP), glycosylated (Homo sapiens) (UniProt P02743)
Assay: antibody-aptamer sandwich electrochemical assay (strep-POD/TMB)
Conditions: 1 uM aptamer, SAP captured by anti-SAP antibody, signal rises with SAP (linear 10-100 ng/mL); 1x PBS (0.1 M phosphate, 0.154 M NaCl, pH 7.4), room temperature, 30 min, 1 uM biotin-PSA-1; also in human serum; protein in a lysate after overexpression; residues 1-223; label: 5'-biotin; single-stranded DNA

“GGACGGTTGCGCTATATTTAACCAAAAGTCTGGATTAACA [PSA-1 aptamer]”: binds.
